Library screen at single concentrations

Measurements from “University of Dundee, Small-Polar-MMV Screening Library” (2021), ChEMBL document CHEMBL3988442.

Mtb glucose medium: 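Whole-cell growth test on Mycobacterium tuberculosis, read after 3 days in glucose-containing 7H9 medium; the read-out is not stated. Concentration: 50 µM. Higher reads as more growth inhibition (inferred: compounds with an IC50 in retests scored well above the rest). Size under these conditions: about 69,000 compounds, about 760 of them at 50% or above in at least one test.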
Mtb cholesterol medium: 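Growth of Mycobacterium tuberculosis over 4 days (cholesterol / DPPC medium with tyloxapol); the read-out is not stated. Tested at 50 µM. Higher reads as more growth inhibition (inferred: compounds with an IC50 in retests scored well above the rest). Size under these conditions: about 69,000 compounds, about 370 of them at 50% or above in at least one test.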

Results are given as percent effect. How 0% and 100% were set is not recorded. Most values in the screen are low, and negative values occur. This is an unselected part of the compounds tested. Two or more numbers in one place are separate tests of the same structure; such repeats can differ widely.

compound	Mtb glucose medium	Mtb cholesterol medium
Cc1cc(C)n(C2CN(CC(O)c3cc(F)ccc3F)C2)n1 (stereo not given)	24.36	3.171
COCCc1noc(Cn2ccc3ncccc3c2=O)n1	-17.5	-12.25
CC(C)(C)OC(=O)NCC1CCCCN1Cc1ccccn1 (stereo not given)	21.4 and 5.43	19.25
COc1ccc(C(CNC(=O)c2cnc(C)cn2)N2CCOCC2)cc1 (stereo not given)	1.742 and -4.182	-4.164
CC(C)(C)CC(=O)N1CCC(c2nn(CCN)c3nccnc23)C1 (stereo not given)	3.884	-4.648
CN(CC1(O)CCCC1)C(=O)c1cccc(Nc2cnccn2)c1	17.77	5.975
COCCCSc1ccc(NCc2cscn2)cc1	26.24 and 31.18	-13.7
CCS(=O)(=O)N1CCC(NC(=O)c2cc(C)ccc2O)CC1	-19.83	3.796
COCCNc1ncnc2c1CCN(C(=O)CC1CCC(=O)N1)CC2 (stereo not given)	5.15	4.6
O=C(O)C(F)(F)F.O=c1cccnn1CC1CN(Cc2ccsc2)Cc2nccn2C1 (stereo not given)	-14.43	3.934
COc1ccccc1CC(C)(C)NC(=O)CNS(C)(=O)=O	-10.39 and -2.92	-19.19
CCc1c(C(=O)N2CCNC(=O)C2)cnn1C(C)(C)C	-3.173	-3.239
CN1CCN(Cc2ccccc2Oc2ccc(C(N)=O)cn2)CC1	-0.6799	2.253
COc1cccc(-c2n[nH]cc2C(=O)NC(C)c2nc(C(C)C)no2)c1 (stereo not given)	21.04	4.339
CCc1nccn1CCC(=O)N1CC[C@H](CO)[C@H](O)C1	-10.15	-1.779 and -8.015
Cc1nn(C)cc1-c1cc(C(F)F)n2nc(CCC(=O)O)nc2n1	-11.4	-1.192
COCCNC(=O)Nc1ccc(-n2cncn2)c(F)c1	-36.39	-13.32
Cc1nn(CCn2ccnc2-c2cc3n(n2)CCCNC3)c(C)c1Cl	-6.765	4.388
CN(C(=O)COC1CCCC1)C1CCN(CC2CCOC2)CC1 (stereo not given)	5.368	2.08
CC(C)(C)NC(=O)CNC(=O)c1cccnc1Oc1cccnc1	11.32	-2.844 and -5.766
Cn1ccnc1CCNS(=O)(=O)c1cccnc1	-16.73	-18.64
O=C(O)C(F)(F)F.[H][C@@]12CCN(Cc3ccoc3)C[C@@]1([H])O[C@H](C(=O)N1CCCC1)C2	3	10.1
CNc1cc(C)nc(N2C[C@@H](C(=O)O)[C@H](C3CC3)C2)n1	-12.05	-2.375
COCCC1(CNC(=O)Nc2ccc(-n3cccn3)cc2)CCC1	46.95	20.01
Cc1cc(C)c(S(=O)(=O)Nc2c(C)noc2C)cc1C(=O)O	4.252	-3.925
CS(=O)(=O)N1CCC2(CN(C(=O)c3cccnc3)C2)C1.O=C(O)C(F)(F)F	-7.048	-16.46
O=C(O)C(F)(F)F.O=C(O)C(F)(F)F.[H][C@@]12OCCN(Cc3ccoc3)[C@@]1([H])CC[C@H]2OCCN1CCCC1	5.978	-10.48
CN(C)C(=O)CCC[S+]([O-])Cc1cc(Cl)ccc1Cl (stereo not given)	5.752	-3.655 and 11.57
[H][C@@]12CN(c3ccccc3)C(=O)N1CCN(C1CCN(C(C)=O)CC1)C2	-1.066 and -10.98	1.318
c1sc(C2CCCCC2)nc1CN1CCn2c(nnc2C2CC2)C1	-12.06	10.79
COc1ccccc1CC(=O)NS(C)(=O)=O	-14.84	-16.5
COCC1CCN(c2ccnc3ccsc23)C1 (stereo not given)	12	12.73
CCN1CCC(c2nc3ccc(NC4CCC4)cn3n2)CC1.O=C(O)C(F)(F)F	7.61	-14.81
CC(C)(C)n1ccc(C(=O)N2CCCC(c3ccc(C(=O)O)cc3)C2)c1 (stereo not given)	-3.749	4.539
Cc1cc(CN2CCC(CNC(=O)c3ccc(C#N)cc3)C2)[nH]n1 (stereo not given)	-25.99 and -0.9856	-3.498 and -5.02
COC(=O)c1cccc(-c2nc(CC3CCN(C)CC3)no2)c1	-11.07	-9.499
O=C1NCC2(CCCN(C(=O)Cn3nc4ccccc4n3)CC2)O1 (stereo not given)	-51.17	-31.83
COc1ccc2c(c1OC)Cc1c-2nc(N)c(C#N)c1C1CCOC1 (stereo not given)	15.26	-3.415
O=C(CCN1C(=O)CCC1=O)Nc1ccc(Cl)cc1	-23.95	-9.156
c1ncn(CC2CCCN2Cc2cn3ccsc3n2)n1 (stereo not given)	-9.368	6.111
CC(NC(=O)CNCCn1cccn1)c1ccc2c(c1)CCCC2 (stereo not given)	20.48	-3.712
c1cnc(-c2cnc(N3CCCCC3)nc2C2CCCO2)cn1 (stereo not given)	21.46	-4.635
CC(C)NC(=O)N1CCN(S(=O)(=O)C2CC2)CC2(CC(=O)N(C)C2)C1 (stereo not given)	9.471	2.43
CCN(Cc1noc(C2CCC2)n1)C(=O)c1cn2ccsc2n1	-7.708	4.529
Cc1cccc(CN2CCC3(CCCN(C(=O)c4ccsc4)C3)C2=O)n1.O=C(O)C(F)(F)F (stereo not given)	-8.001	-9.139
CC(C)COCCCNC(=O)c1cccnc1N1CCOCC1	26.85	-6.594
CC(C)CNC[C@H]1O[C@H](Cc2cc(-c3ccccn3)on2)CC[C@@H]1O	-3.469 and -20.42	-10.21
O=C(NCCN1CCCCCC1)c1coc(COc2ccc(F)cc2)n1	-7.054	-16.5
COCC(C)(O)CNC(=O)COc1ccccc1OC (stereo not given)	-32.3 and -3.748	-31.81
O=C(NCC1(c2cccs2)CCCCC1)N1CCOC(CO)C1 (stereo not given)	29.42	17.97
CCc1nccn1C1CCCN(C(=O)CCc2nc(C(C)C)no2)C1 (stereo not given)	-16.37	-10.79
CCC[C@@H]1CN(c2ncnc3sccc23)C[C@H]1C(=O)O	-10.3	13.25
CCn1ccnc1CNCC(c1ccc(C)s1)N1CCOCC1 (stereo not given)	-15.01 and -2.649	-2.701
CN(C)S(=O)(=O)N1CC(c2ccnc(Nc3ccccn3)n2)C1	-18.11	-19.15
CCC(O)CN1CCN(C(=O)c2cccn2Cc2ccncc2)CC1 (stereo not given)	-13.9	-24.84
CNC(=O)C1(CCCc2ccccn2)CN(Cc2nccn2C)C1	12.59	-5.897
NC(=O)C1CN(c2ccc3c(Cl)ccnc3c2F)CCO1 (stereo not given)	5.695	8.564
O=C1NCC2(CCCN(CCc3ccccc3)C2)Oc2ccccc21 (stereo not given)	-17.86	-21.3
O=C(c1cccs1)N1CCN(CC2CC2)c2ncccc2C1	10.5	-8.227
CS(=O)(=O)CCCNC1(c2cccc(Cl)c2)CCCC1	7.55	3.982 and 41.55
Cc1ccc2c(n1)N(CCn1cccn1)CCN(C(=O)CC1CC1)C2.O=C(O)C(F)(F)F	1.734	-16.52
COCCCC1(C(=O)O)CCCN(Cc2cc3c(cc2C)OCCO3)C1 (stereo not given)	11.53	0.96
CN(Cc1cccc(O)c1)C(=O)c1ccc(CCC(C)(C)O)cc1	4.591	-14.6
CCN(C)S(=O)(=O)N1CCC(C(O)c2ccc(Cl)cc2)CC1 (stereo not given)	18.85 and 23.21	19.42
C[C@@H]1CN(C2(C(=O)N3CC[C@H](O)C3)Cc3ccccc3C2)C[C@H](C)O1	4.093 and 0.5231	-5.2
COc1ccc2[nH]c(C[C@@H]3C[C@@H](C(C)C)[C@H](CN(C)C)C=C3C)nc2c1	4.11 and -2.147	7.618
Cc1cccc2c(CCNC(=O)[C@H](N)c3ccccc3)c[nH]c12	1.63 and 8.259	7.461 and -0.5988

For reference, 5 entries once more:

CN(Cc1cccc(O)c1)C(=O)c1ccc(CCC(C)(C)O)cc1 read Mtb glucose medium: 4.591%; Mtb cholesterol medium: -14.6%.
COC(=O)c1cccc(-c2nc(CC3CCN(C)CC3)no2)c1 read Mtb glucose medium: -11.07%; Mtb cholesterol medium: -9.499%.
c1sc(C2CCCCC2)nc1CN1CCn2c(nnc2C2CC2)C1 read Mtb glucose medium: -12.06%; Mtb cholesterol medium: 10.79%.
Cn1ccnc1CCNS(=O)(=O)c1cccnc1 read Mtb glucose medium: -16.73%; Mtb cholesterol medium: -18.64%.
[H][C@@]12CN(c3ccccc3)C(=O)N1CCN(C1CCN(C(C)=O)CC1)C2 read Mtb glucose medium: -1.066% and -10.98%; Mtb cholesterol medium: 1.318%.